Library screen at single concentrations

Sequences of proteins named here, by UniProt entry; tags and fusion partners are left off. Residues count along the entry.
UniProt Q8IDJ8, 1-583: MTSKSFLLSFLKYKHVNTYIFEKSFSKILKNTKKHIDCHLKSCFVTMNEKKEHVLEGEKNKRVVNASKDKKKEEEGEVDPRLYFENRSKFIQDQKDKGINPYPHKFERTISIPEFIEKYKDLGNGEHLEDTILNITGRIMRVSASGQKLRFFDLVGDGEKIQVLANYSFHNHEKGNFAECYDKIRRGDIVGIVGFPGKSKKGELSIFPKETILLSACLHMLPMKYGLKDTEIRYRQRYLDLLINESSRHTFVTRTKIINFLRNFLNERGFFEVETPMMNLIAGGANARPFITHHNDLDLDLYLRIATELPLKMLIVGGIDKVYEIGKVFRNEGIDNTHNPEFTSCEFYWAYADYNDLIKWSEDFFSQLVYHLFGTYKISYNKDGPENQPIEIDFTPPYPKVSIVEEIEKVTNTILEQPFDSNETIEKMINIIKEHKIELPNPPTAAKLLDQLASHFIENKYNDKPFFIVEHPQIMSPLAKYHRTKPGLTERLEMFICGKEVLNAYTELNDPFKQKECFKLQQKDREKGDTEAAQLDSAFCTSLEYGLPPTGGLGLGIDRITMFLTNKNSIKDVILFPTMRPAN

The values are deposited in ChEMBL (CHEMBL3988442, “University of Dundee, Small-Polar-MMV Screening Library” (2021)).

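Lysine-tRNA ligase, Plasmodium falciparum 3D7 (UniProt Q8IDJ8). Enzyme assay of the cytosolic lysyl-tRNA synthetase in 384-well plates, read by luminescence. Compounds at 30 µM. Direction is inferred from only a few compounds that gave an IC50; most scored high, so higher reads as stronger inhibition. Size under these conditions: about 69,000 compounds, about 49 of them at 50% or above in at least one test.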

Each number is a percent effect as filed.
How 0% and 100% were set is not recorded. Most values in the screen are low, and negative values occur.
The compounds are a random part of those screened.

compound | percent effect
CCc1nsc(NC2CCCn3nc(COC)nc32)n1 (stereo unspecified) | 1.491%
CNC(=O)c1cc2c(nc1N(C)C)CCN(S(=O)(=O)C1CC1)CC2 | -1.45%
COC(=O)CNC(=O)Cn1ccc2cccc(OC)c21 | -4.485%
Cc1cc(C(=O)N2CCCC(N3CCCCCC3)C2)nn1C(C)(C)C (stereo unspecified) | -3.668%
CN(Cc1cc(-c2ccccc2)no1)C(=O)CNS(C)(=O)=O | 1.024%
COCc1cc(N(C)Cc2ncnn2C)nc(C(C)(C)C)n1 | 2.432%
COc1cc(CNCc2c(C)nn(C)c2N(C)C)ccc1OCCO | 1.207%
CCc1nnc2n1CCN(Cc1csc(-c3ccccc3)n1)C2 | -1.816%
CC(C)(CNC(=O)NCCOc1cccc(F)c1)C(N)=O | 1.007%
CC(C)n1c(C2CCCN(CC(=O)NC3CC3)C2)nc2ccccc21 (stereo unspecified) | -2.75%
CC(C)(C)c1cc(C[C@H]2CNCC[C@H]2CC(=O)Nc2ccccc2)no1 | 0.1825%
CC1N(CC2CC2)C(=O)COC12CCN(C(=O)c1cnccn1)CC2 (stereo unspecified) | 0.5727%
Cc1nn(C)c(C)c1C(=O)N1CCN(C(=O)CCC2CCCCC2)CC1 | 7.324%
CN1CCN(Cc2nc3c(s2)CCCC3)[C@H]2CS(=O)(=O)C[C@H]21 | 2.952%
O=C(CCCn1cncn1)NC1(c2ccccc2)CCC1 | 2.977%
Cc1ccsc1C(CNC(=O)c1cc(=O)[nH]c(=O)[nH]1)N(C)C (stereo unspecified) | 2.764%
COc1c(C2CCCN2C(=O)CCNc2ncccn2)c(C)nn1C (stereo unspecified) | 0.4426%
CCc1nnc2n1CCN(C(=O)c1cc3cc(C)ccc3[nH]1)C2 | 0.9902%
Cc1ccnc(OCC(=O)N2CCC(C(N)=O)CC2)n1 | 0.8694%
COCCN(Cc1ccc(F)cc1Cl)C(=O)c1ccc(=O)[nH]n1 | 16.78%
CN(C(=O)Cn1nc(-c2ccc(F)cc2)ccc1=O)C1CCS(=O)(=O)C1 (stereo unspecified) | 7.232%
O=C(COC1CCCC1)N1CCC(C(O)c2ccc(F)cc2)CC1 (stereo unspecified) | 4.827%
Cc1cccc(CCC(=O)NCC2CCCN2c2cccnn2)c1 (stereo unspecified) | -1.488%
Cc1noc(C)c1CN(Cc1cccs1)C1CCS(=O)(=O)C1 (stereo unspecified) | -1.79%
Cc1ccc(CNC(=O)c2ccc(=O)n(C)n2)c(OC2CCCC2)c1 | 7.187%
CC(N(C)Cc1nc2c(cnn2C)c(=O)[nH]1)C(C)(C)C (stereo unspecified) | -4.385%
COCCOc1ncccc1C(=O)Nc1c(C)cnn1CC1CC1 | 3.523%
N#Cc1cccc(CNc2ccc(F)cc2OCCO)c1 | 5.011%
CC(C)COC(C)C(=O)NCc1cc(F)cc(F)c1 (stereo unspecified) | 7.47%
O=C(Nc1cccnc1N1CCSCC1)c1ccc2c(c1)CCC2 | 1.64%
c1cnnc(N2CCCC(NCc3nc(-c4ccsc4)no3)C2)c1 (stereo unspecified) | 3.834%
CC(C)(C)n1cc(NC(=O)C2CN(Cc3ccccc3)CCO2)cn1 (stereo unspecified) | 6.862%
Cc1cc(C(=O)NC2CCc3c(ccc(=O)n3CCN(C)C)C2)no1 (stereo unspecified) | 0.9279%
CCc1nnsc1C(=O)NCc1c(C)nn(CCOC)c1C | 6.573%
Cc1cc(N(Cc2cccnc2)C2CC2)n2nc(C(F)(F)F)nc2n1 | 0.6061%
O=C(NCC(c1ccc(F)cc1)N1CCOCC1)Nc1cn[nH]c1 (stereo unspecified) | -1.734%
O=C(c1cocn1)N1CCC2(CC1)CC(Oc1ccccn1)CO2 (stereo unspecified) | 3.577%
N#CCc1ccc(NC(=O)N[C@H](CO)Cc2ccc(O)cc2)cc1 | -2.772%
C/C=C(/C)C(=O)NS(=O)(=O)c1ccc(C(F)(F)F)cc1 | 4.183%
CCc1ncc(C(=O)N(C)C(C)c2ccc3c(c2)OCCO3)cn1 (stereo unspecified) | 0.1299%
O=C(NCCCn1cccn1)c1nnc2ccccc2n1 | 4.345%
O=c1c(NCCO)c(N2CCN(c3ccccc3)CC2)c1=O | 6.825%
Cc1cc(C)n(CC(=O)N2CCC(Nc3cccnn3)CC2)n1 | 0.8406%
CC(C)Cc1noc(CN2CCN(C(=O)c3ccccc3F)CC2)n1 | 5.209%
COc1ccc(-c2nc(CN3CCc4cnc(C)nc4C3)no2)cc1 | 0.1687%
CN(C(=O)c1ccccn1)c1nnc(C2CCOC2)s1 (stereo unspecified) | 1.055%
O=S1(=O)COCCN1Cc1ccc(Cl)c(F)c1 | -0.2081%
CC(C)CC(NC(=O)CSCC(N)=O)c1cccs1 (stereo unspecified) | 0.6444%
COc1ccc2cnn(CC(=O)NCC3CCCO3)c(=O)c2c1OC (stereo unspecified) | 4.5%
O=c1[nH]c2cc3c(cc2cc1CN1CCCC1c1ccccn1)CCC3 (stereo unspecified) | 7.926%
Cc1nnc(SCCC(=O)N(C)Cc2ccc(F)cc2Cl)[nH]1 | 9.007%
Cc1ccccc1[C@@H]1CN(C(=O)c2ccc3[nH]nnc3c2)C[C@H]1C(=O)O | 4.676%
NC(=O)c1ccc(C2CCCN2C(=O)Cn2nc3ccccc3n2)s1 (stereo unspecified) | 0.2479%
O=C(c1cccnc1-n1cncn1)N1CCC(Nc2ccccc2)CC1 | 3.644%
CN1CCCC1c1cccc(Cc2ccc(F)cc2)n1 (stereo unspecified) | -0.092%
CC(c1ccccc1)N(C)C(=O)CN1CCN(c2cnccn2)CC1 (stereo unspecified) | 4.824%
COCCC(=O)N1CCCC(c2nc(O)cc(-c3ccncc3)n2)C1 (stereo unspecified) | -0.8066%
O=C(C1=CCCCC1)N1CCC2(CC1)COC(COc1ccccn1)C2 (stereo unspecified) | -3.372%
Cc1ccc2c(n1)N(C)CCN(CCN1CCCC1)C2 | 2.027%
Cn1nc2c(c1NC(=O)c1ccc(Cl)s1)CCC2 | 5.998%

The first 4 entries again:

{"compound": "CCc1nsc(NC2CCCn3nc(COC)nc32)n1", "stereo": "stereo unspecified", "percent effect": 1.491}
{"compound": "CNC(=O)c1cc2c(nc1N(C)C)CCN(S(=O)(=O)C1CC1)CC2", "percent effect": -1.45}
{"compound": "COC(=O)CNC(=O)Cn1ccc2cccc(OC)c21", "percent effect": -4.485}
{"compound": "Cc1cc(C(=O)N2CCCC(N3CCCCCC3)C2)nn1C(C)(C)C", "stereo": "stereo unspecified", "percent effect": -3.668}